This is an account of results in PMC4519330.

Chains of the proteins cited; added tags and fusions are not shown. Lines headed by an entry give the natural chain unless they say otherwise; changes in a name come on top.
UniProt Q9Y4K3: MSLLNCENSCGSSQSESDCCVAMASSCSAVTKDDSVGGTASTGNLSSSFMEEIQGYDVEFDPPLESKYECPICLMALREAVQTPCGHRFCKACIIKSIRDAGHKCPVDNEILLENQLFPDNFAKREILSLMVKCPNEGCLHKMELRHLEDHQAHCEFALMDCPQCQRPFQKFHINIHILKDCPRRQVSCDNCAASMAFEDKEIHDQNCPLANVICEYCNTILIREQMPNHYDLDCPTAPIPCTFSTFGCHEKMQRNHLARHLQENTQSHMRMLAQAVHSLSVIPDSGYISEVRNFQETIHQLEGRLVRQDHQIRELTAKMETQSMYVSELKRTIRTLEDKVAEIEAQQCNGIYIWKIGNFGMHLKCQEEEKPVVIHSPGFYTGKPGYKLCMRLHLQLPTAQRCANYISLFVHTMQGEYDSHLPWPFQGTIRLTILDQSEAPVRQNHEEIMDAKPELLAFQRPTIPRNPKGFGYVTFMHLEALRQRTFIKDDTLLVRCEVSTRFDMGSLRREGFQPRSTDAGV
UniProt Q7Z434: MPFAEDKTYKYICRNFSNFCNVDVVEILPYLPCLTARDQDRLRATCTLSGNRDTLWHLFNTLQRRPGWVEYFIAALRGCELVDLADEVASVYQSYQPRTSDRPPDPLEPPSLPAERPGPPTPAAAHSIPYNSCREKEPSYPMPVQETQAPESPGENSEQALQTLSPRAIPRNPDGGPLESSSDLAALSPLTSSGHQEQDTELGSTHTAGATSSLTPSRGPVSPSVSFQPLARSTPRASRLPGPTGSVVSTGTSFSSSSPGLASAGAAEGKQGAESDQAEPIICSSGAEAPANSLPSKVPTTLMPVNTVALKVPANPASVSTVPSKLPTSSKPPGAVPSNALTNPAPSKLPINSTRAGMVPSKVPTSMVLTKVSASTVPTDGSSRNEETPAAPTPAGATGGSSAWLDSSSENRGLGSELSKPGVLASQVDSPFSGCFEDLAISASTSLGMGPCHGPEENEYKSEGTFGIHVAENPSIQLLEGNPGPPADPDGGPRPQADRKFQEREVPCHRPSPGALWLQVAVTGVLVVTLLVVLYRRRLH

These are yes or no findings as the source states them, for the method shown. Binding seen in cells or lysates may run through a third protein. Binding can be weak; no strength is given. For part of these data: Where a sequence is shown, tags or fusion partners need not be part of it.

One test has as its target T1, Flag-TRAF2 (UniProt Q12933).
T1 sequence: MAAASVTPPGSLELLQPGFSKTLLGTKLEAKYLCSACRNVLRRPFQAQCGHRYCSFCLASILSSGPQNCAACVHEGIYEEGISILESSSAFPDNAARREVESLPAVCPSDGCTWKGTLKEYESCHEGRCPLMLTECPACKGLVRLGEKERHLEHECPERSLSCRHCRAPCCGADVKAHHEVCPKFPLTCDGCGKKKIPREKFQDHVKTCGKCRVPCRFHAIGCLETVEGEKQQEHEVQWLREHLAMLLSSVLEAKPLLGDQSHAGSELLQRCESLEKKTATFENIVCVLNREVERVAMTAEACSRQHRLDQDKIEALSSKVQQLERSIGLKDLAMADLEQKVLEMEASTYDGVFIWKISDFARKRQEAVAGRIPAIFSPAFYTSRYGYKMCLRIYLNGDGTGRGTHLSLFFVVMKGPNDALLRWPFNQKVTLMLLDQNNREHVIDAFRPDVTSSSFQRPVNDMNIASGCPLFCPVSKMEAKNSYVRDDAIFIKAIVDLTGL
In words: co-IP; 293T cells co-transfected; lysates in NP40 buffer (50 mM Tris-HCl pH 7.4, 150 mM NaCl, 5 mM EDTA, 1% NP40) precipitated with anti-Flag agarose at 4°C for 4-6 hours; immunoblot.

The target in a further test is Flag-TRAF6 (UniProt Q9Y4K3). The description is as above.

In the case of “MAVS50 mutant of TRAF2-binding (M2) (from UniProt Q7Z434)”, the binding entry with Flag-TRAF2 is given as “no binding”.

Take “MAVS50 mutant of TRAF6-binding (M6) (from UniProt Q7Z434)”: the binding result with Flag-TRAF2 and in the test with Flag-TRAF6 was “binds” throughout.
